Source: publication PMC10795994
These are yes or no findings as the source states them, for the method shown. For some of these results: Binding seen in cells or lysates may run through a third protein. Some results given as binding are weak or reduced against the parent protein; the word gives no strength. Tags and fused reporters may be left off the sequences shown.

T1: Lsd1-FTP (S. pombe) (UniProt Q9Y802)
T1 sequence: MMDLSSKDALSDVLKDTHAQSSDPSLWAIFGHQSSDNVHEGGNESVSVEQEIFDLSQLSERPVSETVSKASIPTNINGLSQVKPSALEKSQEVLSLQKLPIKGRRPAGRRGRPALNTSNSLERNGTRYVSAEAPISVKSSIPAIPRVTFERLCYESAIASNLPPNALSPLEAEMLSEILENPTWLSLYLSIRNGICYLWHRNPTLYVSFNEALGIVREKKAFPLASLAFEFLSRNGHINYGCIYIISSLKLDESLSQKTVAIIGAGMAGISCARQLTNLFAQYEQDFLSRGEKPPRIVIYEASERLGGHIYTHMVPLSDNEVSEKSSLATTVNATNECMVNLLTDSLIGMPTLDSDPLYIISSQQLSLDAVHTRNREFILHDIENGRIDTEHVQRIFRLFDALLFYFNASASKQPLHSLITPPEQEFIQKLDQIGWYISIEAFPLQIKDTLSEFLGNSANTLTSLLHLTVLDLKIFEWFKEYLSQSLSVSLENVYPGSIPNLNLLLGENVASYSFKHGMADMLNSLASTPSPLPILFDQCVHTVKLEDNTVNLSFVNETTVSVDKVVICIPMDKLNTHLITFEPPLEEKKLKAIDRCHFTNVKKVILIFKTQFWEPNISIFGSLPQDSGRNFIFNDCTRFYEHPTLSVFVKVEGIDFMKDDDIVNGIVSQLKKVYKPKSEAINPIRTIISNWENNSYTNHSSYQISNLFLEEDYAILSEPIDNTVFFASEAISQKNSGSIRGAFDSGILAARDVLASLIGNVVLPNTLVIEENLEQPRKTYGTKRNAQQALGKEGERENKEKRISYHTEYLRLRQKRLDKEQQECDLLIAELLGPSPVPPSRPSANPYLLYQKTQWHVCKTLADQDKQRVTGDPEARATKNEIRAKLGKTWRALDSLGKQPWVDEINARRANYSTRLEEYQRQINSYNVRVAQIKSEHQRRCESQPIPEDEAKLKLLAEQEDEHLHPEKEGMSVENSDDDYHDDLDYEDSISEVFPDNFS

T2: Lsd2-FTP (S. pombe) (UniProt Q10135)
T2 sequence: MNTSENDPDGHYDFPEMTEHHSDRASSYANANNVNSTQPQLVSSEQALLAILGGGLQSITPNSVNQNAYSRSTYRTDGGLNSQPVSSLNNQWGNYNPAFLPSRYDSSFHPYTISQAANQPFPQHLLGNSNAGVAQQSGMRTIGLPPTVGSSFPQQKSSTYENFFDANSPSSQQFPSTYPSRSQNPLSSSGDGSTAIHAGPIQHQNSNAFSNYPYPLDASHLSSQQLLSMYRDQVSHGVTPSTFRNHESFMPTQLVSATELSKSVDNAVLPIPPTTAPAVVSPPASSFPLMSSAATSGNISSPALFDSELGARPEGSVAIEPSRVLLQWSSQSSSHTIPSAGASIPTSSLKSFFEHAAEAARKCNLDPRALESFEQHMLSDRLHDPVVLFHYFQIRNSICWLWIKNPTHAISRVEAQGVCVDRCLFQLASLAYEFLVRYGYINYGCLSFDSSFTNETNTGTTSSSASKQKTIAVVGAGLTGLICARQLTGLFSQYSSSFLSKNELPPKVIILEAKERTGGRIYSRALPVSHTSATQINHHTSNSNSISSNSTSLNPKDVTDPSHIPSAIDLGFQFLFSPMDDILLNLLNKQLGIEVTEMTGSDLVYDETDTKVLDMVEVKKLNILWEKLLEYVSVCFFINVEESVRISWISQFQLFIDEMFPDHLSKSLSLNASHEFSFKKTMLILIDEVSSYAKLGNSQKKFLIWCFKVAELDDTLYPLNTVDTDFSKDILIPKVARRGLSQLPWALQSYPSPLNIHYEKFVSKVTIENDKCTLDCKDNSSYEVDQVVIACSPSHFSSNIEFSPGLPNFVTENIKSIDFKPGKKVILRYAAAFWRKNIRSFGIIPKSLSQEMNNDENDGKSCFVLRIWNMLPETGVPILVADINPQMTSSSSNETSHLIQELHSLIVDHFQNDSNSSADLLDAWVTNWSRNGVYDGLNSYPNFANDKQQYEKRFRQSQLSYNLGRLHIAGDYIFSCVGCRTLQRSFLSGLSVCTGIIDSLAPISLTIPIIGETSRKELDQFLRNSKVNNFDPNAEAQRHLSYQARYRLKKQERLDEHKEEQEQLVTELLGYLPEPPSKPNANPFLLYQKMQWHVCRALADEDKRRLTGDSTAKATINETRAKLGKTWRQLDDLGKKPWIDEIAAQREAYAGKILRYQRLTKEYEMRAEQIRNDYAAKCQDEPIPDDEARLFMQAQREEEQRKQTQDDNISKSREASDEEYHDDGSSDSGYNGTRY

T3: lsd1-ΔHMG-FTP (S. pombe) (UniProt Q9Y802)
T3 sequence: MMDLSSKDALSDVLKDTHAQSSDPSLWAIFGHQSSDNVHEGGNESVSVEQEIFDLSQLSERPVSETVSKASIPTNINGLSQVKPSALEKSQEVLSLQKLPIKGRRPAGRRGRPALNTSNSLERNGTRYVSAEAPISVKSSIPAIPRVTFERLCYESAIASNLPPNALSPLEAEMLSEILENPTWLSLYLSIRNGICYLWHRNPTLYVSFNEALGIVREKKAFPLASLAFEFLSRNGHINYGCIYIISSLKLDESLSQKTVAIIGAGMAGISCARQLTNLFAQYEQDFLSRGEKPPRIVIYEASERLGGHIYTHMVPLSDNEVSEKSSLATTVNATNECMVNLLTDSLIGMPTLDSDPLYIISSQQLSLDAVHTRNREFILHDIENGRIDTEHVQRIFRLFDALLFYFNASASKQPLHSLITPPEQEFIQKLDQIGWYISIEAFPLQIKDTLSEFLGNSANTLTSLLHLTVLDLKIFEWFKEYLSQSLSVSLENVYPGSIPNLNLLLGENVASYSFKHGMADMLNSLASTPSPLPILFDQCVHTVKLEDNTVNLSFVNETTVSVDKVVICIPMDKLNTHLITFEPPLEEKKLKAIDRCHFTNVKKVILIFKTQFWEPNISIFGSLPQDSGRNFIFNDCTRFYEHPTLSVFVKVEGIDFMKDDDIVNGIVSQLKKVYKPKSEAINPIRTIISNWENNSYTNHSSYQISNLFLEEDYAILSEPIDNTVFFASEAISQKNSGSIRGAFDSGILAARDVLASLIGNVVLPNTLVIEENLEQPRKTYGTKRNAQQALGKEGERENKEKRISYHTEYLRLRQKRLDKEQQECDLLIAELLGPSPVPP

T4: Lsd1 (yeast two-hybrid fusion) (S. pombe) (UniProt Q9Y802)
T4 sequence: T1 sequence

B1: Phf1-myc (protein, UniProt P87233 1-461)
chain: MSQKNFFDEGKSYGVNDYAGFHFENGADSSLPQVSAQGVVRETDSSNFDASPVASGSGISDVGPFGADFHQLQQHVQTPYGGMTMPASSSSGATSVPPEQDPSLSVSFNRLPKSASTKTKNGRIRSSRREDDNRIPFYDLDVAEGAEDDLQEDFHVEGMKTKSGRKIQRPVAYNPNATALKRKSRKVDMVTLCSVCQRGHSPLSNRIVFCDGCNSPYHQLCHHPPIDDATVQDVDAEWFCMKCQYRRAKQPLETGMTAQDLGLSESDKKMYLSSLPTPHLADLILFCEKSYPSLPIYNPRTRELLGEIRHQLLVSSERQQISLQERLHAKQDEAPSDEPAPVPYTASYVANSGTLYDYPTLIRLAIRNTLSPSKDEIFNWLAQNVPLLPTFHDSASEAIRWMVNKGQLVRSGSIYQIATVEEYPHLQPSLLPTFQRNRKVPKLVPVSFPTDDPQNLCATVL
B2: Raf2-myc (protein, UniProt O74560 1-636)
chain: MPPVRAEKKRKTDLIEQVCVTNKAGELVDLEDVLEYGPYSLTGILSSEKDEQEPLFDESIVLGYSIKISPVWTYNLKDVPEKETMSIWIVTPQRRYGILSPSSEYKAIYEQISEKNRLFYLIKTKFKDDMISGTLEDYDNYIEVLKEKLELPSCFQAILLVQKHIRFLLTQMVATSSLHVWSESPFFIRIRSSYEHLILQINKNIYNARQERKKSKLSSNNPSDNNTTMKSSLNQALTLINLPEQPFSISSPTATPQLGVVKRTSPLRFPLNDIWLSGLRIVDPNIESISLWKRIQVSTSPKHQRYISLQEVCSVIAQQLQITNLEALNKLSSHGETLLQIMHTAFTWRGTKLFNDIKHAIGFRSSVQQARSQFRGYCYDYLFMHCNNGEKTSLHLLRTLICMKLDFSNAQLAAKILFHFLLFDIGSGLSGSDYTYEQYINHSAVAFSFTEEIFEKNFVTVLPDFVKLFSISFGYWPAFSFYDELLKLLRNKYPKVYSSTPNLCDQVWLDRTNLFPCNRSTRSTLPYRPTKLLDLASASSCLSKKETDFKQDTGLYSYNLEKVEALKVSPDLQTGIWSCPVQNCLYFAVCDNPYKPSQVIYDHLLGHVDSKFIFKTPSNSVRSFTNKLEHIMYNIN
B3: Swd2-GFP-HA (protein, UniProt O60137 1-357)
chain: MTTVSITFDLLSSMQPRKWLKNQNFVGEITSLSFDDSGELCLASCTDDTLQLYNCISGKFVKSLASKKYGAHLGRFTHHSNSLIHASTKEDNTVRYLDVVTNRYLRYFPGHKQTVTSIDVSPADETFLSASLDNTIRLWDLRSPNCQGLLNVSSPVVAAFDATGLIFASVSERKYKISLYNIKSFDARPFQDIPLTFLPPHVRIANVEFSTDGKYLLLTTGNDFHYVIDAYSGSELLRVPSKVSTKTQDGNLTYYASACMSPDSKFLFTSYDNEHLCMYQLPELKQTVNSDHIVNSFTEMGLASTTPTSNSHSTENPLAIIPSSTSKNLLPETPSIVRFNPRFSQLVTAHSGVIFWT
B4: Phf2 (yeast two-hybrid fusion) (protein, UniProt Q09908 1-538)
chain: MPNSSYYDDDGGSFEAASYPFQFDGSRRFPNDLHPTMFEGEESNQNGGSVLIDQAFQDIQNPNVNSNMHLENQFQHFHEPNKESGAFGSYKNDDVAKEIESSKNQETDAKSEQAPFTEDASSSNYAHHRSADSQTKSALPPNVPASSSPLPPMSIAMNIARKRSWPASLAIERDNTADALFSTEDGREEQFNLEGVKTKSGRKVHRPNHFDPLVKLPTRRRGPGRRPVVALAMKCSVCQRLQSPPKNRIVFCDGCNTPFHQLCHEPYISDELLDSPNGEWFCDDCIRRKKQAPLVTGTTARELNLSSEEKKSYLLSLPISQLVDILLFCEQLHPDIPFYSPKTSTIVQELQSKRSAFTATMNEPVTGDQYLSLNNGTESQSKTTKHSTSLPSTEPVEVDKQYMESEKIPTIDEYLQEYSNEDEIVLQVLESFPAAVSFSTITNTIQAKYSNRKIKNSNITRSLNRLVRKNRVLRDARGSSYELNRTFDADRPSVRPDISITGPIPIDWMLYTPHTEDLTENFCTYYMFDETPIVLSSI
B5: Phf2-myc (protein, UniProt Q09908 1-538)
chain: B4 chain

Experiments:
Lsd1-FTP (S. pombe) = molecular target: T1, Lsd1-FTP (S. pombe); experiment: co-IP; FTP-tagged Lsd1 or Lsd2 precipitated from S. pombe whole cell extract with IgG Sepharose beads, 4-6 hours at 4°C; western blot with PAP, anti-myc or anti-HA
Lsd2-FTP (S. pombe) = molecular target: T2, Lsd2-FTP (S. pombe); experiment: as above
lsd1-ΔHMG-FTP (S. pombe) = molecular target: T3, lsd1-ΔHMG-FTP (S. pombe); experiment: as above
[1] = molecular target: T4, Lsd1 (yeast two-hybrid fusion) (S. pombe); experiment: two-hybrid; Matchmaker Gold system; bait fused to Gal4-BD (pGBKT7, Y2H Gold cells), prey fused to Gal4-AD (pGADT7, Y187 cells), mated; reporters ADE2 (-Ade -Leu -Trp) and MEL1 (-Leu -Trp +X-α-gal)

| Binder | binding (Lsd1-FTP (S. pombe)) | binding (Lsd2-FTP (S. pombe)) | binding (lsd1-ΔHMG-FTP (S. pombe)) | binding [1] |
| --- | --- | --- | --- | --- |
| B1 | binds | binds | binds |  |
| B2 | binds | binds |  |  |
| B3 | binds | binds |  |  |
| B4 |  |  |  | binds |
| B5 | binds |  | binds |  |
